The text below walks through data of paper doi:10.1101/2024.10.11.617944.

What all share (assay): two-hybrid
In test [1] the target is AFP2-AB domain, yeast two-hybrid fusions (Arabidopsis thaliana) (UniProt Q9LMX5).
The target in test [2] is T1, ABI5-Binding Protein 2 (AFP2), yeast two-hybrid fusions (Arabidopsis thaliana) (UniProt Q9LMX5).
T1 sequence: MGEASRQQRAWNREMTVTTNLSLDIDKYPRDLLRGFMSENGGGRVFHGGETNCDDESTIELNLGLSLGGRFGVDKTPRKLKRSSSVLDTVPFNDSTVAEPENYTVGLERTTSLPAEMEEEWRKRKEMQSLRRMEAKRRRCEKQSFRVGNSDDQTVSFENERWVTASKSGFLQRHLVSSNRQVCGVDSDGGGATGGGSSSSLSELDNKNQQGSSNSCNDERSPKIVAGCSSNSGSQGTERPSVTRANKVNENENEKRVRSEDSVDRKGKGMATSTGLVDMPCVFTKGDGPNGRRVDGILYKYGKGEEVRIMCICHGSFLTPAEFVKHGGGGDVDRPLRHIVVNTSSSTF

The target in test [3] is T2, ABI5-Binding Protein 4 (AFP4), yeast two-hybrid fusions (Arabidopsis thaliana), Q9S7Z2.
T2 chain: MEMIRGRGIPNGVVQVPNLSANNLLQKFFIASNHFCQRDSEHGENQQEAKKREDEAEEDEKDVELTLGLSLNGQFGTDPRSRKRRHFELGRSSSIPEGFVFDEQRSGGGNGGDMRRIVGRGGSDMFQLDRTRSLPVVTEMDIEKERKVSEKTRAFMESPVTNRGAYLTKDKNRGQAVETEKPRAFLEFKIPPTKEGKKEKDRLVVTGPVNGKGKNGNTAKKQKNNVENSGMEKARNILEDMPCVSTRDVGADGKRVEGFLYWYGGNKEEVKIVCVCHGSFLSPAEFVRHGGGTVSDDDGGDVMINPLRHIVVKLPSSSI
To be noted: remark: other sources report otherwise.

In test [4] the target is T3, ABI5-Binding Protein 2 (AFP2), yeast two-hybrid fusions (Arabidopsis thaliana), Q9LMX5.
T3 chain: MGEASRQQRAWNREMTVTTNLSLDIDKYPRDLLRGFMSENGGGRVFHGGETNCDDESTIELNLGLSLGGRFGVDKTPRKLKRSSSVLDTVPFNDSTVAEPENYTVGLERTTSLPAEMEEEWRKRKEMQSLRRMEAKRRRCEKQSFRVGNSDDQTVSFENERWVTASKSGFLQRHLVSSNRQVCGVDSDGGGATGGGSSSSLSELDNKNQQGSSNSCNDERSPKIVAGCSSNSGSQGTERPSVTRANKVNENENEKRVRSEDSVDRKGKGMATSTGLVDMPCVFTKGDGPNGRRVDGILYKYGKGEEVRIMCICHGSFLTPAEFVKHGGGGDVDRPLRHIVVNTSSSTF
Conditions: remark: other sources report otherwise.

For test [5], the target named is T4, ABI5-Binding Protein 1 (AFP1), yeast two-hybrid fusions (Arabidopsis thaliana), Q9LQ98.
T4 chain: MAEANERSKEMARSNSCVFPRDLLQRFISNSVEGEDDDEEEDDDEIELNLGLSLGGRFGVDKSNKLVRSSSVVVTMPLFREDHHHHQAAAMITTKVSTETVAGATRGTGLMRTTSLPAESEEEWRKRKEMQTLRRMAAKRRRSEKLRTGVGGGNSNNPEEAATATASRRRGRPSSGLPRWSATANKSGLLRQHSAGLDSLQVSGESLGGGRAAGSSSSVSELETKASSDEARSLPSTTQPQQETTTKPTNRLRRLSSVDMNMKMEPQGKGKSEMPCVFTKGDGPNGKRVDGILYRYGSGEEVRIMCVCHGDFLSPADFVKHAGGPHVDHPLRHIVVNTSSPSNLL
To be noted: remark: other sources report otherwise.

The target of test [6] is T5, ABI5-Binding Protein 3 (AFP3), yeast two-hybrid fusions (Arabidopsis thaliana), Q94F39.
T5 chain: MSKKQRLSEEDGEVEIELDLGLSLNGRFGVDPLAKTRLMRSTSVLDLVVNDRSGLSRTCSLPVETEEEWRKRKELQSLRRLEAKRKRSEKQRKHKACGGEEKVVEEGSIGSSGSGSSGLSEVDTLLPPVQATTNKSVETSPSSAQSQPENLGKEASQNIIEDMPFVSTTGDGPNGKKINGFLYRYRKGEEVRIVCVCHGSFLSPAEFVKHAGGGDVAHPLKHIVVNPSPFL
To be noted: remark: other sources report otherwise.

These are yes or no findings as the source states them, for the method shown. Some entries that bind do so weakly or less than the wild type. Sequences can lack the tags named with a protein.

B1: AFP2-AB domain, yeast two-hybrid fusions (domain or fragment, UniProt Q9LMX5 1-149)
chain: MGEASRQQRAWNREMTVTTNLSLDIDKYPRDLLRGFMSENGGGRVFHGGETNCDDESTIELNLGLSLGGRFGVDKTPRKLKRSSSVLDTVPFNDSTVAEPENYTVGLERTTSLPAEMEEEWRKRKEMQSLRRMEAKRRRCEKQSFRVGN
As to B1, the figures for the binding entry in test [1] and in test [2] were “no binding” and “binds”, respectively.

B2: ABA-… …ON 3 (AHG3), AD fusion, P49598 1-399 (enzyme)
chain: MAGICCGVVGETEPAAPVDSTSRASLRRRLDLLPSIKIVADSAVAPPLENCRKRQKRETVVLSTLPGNLDLDSNVRSENKKARSAVTNSNSVTEAESFFSDVPKIGTTSVCGRRRDMEDAVSIHPSFLQRNSENHHFYGVFDGHGCSHVAEKCRERLHDIVKKEVEVMASDEWTETMVKSFQKMDKEVSQRECNLVVNGATRSMKNSCRCELQSPQCDAVGSTAVVSVVTPEKIIVSNCGDSRAVLCRNGVAIPLSVDHKPDRPDELIRIQQAGGRVIYWDGARVLGVLAMSRAIGDNYLKPYVIPDPEVTVTDRTDEDECLILASDGLWDVVPNETACGVARMCLRGAGAGDDSDAAHNACSDAALLLTKLALARQSSDNVSVVVVDLRKRRNNQASS
B2: the binding entry in test [3], in test [4], in test [5] and in test [6] was “binds” in each case.
